Measured values as given in PMC11610139.
Results are given in words; binding and its absence hold for the method and conditions named. In cells and extracts the contact can be indirect. Some entries that bind do so weakly or less than the wild type.

Amino acid sequences for entries named in this document (tags omitted). Residues count along the entry.
UniProt P05556: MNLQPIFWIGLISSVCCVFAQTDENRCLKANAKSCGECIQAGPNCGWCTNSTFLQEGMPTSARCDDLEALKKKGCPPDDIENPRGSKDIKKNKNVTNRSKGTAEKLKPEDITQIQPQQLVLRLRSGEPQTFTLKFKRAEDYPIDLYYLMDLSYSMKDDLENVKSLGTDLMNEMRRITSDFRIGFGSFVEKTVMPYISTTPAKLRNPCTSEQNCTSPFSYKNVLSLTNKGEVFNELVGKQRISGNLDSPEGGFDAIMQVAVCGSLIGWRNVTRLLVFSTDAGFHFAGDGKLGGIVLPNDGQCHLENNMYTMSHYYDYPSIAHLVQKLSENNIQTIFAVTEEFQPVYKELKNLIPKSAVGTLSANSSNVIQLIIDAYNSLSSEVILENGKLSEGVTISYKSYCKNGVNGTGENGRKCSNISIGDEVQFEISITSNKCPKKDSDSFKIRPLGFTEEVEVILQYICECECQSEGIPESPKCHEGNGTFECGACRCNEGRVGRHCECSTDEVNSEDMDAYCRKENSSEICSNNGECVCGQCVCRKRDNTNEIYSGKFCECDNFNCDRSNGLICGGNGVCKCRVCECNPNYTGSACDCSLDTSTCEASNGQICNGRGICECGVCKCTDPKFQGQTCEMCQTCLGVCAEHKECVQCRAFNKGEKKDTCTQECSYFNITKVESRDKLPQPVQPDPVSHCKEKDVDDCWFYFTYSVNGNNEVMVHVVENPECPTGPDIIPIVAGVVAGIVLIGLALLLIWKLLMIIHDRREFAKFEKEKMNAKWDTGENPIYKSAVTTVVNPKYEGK
UniProt O75592: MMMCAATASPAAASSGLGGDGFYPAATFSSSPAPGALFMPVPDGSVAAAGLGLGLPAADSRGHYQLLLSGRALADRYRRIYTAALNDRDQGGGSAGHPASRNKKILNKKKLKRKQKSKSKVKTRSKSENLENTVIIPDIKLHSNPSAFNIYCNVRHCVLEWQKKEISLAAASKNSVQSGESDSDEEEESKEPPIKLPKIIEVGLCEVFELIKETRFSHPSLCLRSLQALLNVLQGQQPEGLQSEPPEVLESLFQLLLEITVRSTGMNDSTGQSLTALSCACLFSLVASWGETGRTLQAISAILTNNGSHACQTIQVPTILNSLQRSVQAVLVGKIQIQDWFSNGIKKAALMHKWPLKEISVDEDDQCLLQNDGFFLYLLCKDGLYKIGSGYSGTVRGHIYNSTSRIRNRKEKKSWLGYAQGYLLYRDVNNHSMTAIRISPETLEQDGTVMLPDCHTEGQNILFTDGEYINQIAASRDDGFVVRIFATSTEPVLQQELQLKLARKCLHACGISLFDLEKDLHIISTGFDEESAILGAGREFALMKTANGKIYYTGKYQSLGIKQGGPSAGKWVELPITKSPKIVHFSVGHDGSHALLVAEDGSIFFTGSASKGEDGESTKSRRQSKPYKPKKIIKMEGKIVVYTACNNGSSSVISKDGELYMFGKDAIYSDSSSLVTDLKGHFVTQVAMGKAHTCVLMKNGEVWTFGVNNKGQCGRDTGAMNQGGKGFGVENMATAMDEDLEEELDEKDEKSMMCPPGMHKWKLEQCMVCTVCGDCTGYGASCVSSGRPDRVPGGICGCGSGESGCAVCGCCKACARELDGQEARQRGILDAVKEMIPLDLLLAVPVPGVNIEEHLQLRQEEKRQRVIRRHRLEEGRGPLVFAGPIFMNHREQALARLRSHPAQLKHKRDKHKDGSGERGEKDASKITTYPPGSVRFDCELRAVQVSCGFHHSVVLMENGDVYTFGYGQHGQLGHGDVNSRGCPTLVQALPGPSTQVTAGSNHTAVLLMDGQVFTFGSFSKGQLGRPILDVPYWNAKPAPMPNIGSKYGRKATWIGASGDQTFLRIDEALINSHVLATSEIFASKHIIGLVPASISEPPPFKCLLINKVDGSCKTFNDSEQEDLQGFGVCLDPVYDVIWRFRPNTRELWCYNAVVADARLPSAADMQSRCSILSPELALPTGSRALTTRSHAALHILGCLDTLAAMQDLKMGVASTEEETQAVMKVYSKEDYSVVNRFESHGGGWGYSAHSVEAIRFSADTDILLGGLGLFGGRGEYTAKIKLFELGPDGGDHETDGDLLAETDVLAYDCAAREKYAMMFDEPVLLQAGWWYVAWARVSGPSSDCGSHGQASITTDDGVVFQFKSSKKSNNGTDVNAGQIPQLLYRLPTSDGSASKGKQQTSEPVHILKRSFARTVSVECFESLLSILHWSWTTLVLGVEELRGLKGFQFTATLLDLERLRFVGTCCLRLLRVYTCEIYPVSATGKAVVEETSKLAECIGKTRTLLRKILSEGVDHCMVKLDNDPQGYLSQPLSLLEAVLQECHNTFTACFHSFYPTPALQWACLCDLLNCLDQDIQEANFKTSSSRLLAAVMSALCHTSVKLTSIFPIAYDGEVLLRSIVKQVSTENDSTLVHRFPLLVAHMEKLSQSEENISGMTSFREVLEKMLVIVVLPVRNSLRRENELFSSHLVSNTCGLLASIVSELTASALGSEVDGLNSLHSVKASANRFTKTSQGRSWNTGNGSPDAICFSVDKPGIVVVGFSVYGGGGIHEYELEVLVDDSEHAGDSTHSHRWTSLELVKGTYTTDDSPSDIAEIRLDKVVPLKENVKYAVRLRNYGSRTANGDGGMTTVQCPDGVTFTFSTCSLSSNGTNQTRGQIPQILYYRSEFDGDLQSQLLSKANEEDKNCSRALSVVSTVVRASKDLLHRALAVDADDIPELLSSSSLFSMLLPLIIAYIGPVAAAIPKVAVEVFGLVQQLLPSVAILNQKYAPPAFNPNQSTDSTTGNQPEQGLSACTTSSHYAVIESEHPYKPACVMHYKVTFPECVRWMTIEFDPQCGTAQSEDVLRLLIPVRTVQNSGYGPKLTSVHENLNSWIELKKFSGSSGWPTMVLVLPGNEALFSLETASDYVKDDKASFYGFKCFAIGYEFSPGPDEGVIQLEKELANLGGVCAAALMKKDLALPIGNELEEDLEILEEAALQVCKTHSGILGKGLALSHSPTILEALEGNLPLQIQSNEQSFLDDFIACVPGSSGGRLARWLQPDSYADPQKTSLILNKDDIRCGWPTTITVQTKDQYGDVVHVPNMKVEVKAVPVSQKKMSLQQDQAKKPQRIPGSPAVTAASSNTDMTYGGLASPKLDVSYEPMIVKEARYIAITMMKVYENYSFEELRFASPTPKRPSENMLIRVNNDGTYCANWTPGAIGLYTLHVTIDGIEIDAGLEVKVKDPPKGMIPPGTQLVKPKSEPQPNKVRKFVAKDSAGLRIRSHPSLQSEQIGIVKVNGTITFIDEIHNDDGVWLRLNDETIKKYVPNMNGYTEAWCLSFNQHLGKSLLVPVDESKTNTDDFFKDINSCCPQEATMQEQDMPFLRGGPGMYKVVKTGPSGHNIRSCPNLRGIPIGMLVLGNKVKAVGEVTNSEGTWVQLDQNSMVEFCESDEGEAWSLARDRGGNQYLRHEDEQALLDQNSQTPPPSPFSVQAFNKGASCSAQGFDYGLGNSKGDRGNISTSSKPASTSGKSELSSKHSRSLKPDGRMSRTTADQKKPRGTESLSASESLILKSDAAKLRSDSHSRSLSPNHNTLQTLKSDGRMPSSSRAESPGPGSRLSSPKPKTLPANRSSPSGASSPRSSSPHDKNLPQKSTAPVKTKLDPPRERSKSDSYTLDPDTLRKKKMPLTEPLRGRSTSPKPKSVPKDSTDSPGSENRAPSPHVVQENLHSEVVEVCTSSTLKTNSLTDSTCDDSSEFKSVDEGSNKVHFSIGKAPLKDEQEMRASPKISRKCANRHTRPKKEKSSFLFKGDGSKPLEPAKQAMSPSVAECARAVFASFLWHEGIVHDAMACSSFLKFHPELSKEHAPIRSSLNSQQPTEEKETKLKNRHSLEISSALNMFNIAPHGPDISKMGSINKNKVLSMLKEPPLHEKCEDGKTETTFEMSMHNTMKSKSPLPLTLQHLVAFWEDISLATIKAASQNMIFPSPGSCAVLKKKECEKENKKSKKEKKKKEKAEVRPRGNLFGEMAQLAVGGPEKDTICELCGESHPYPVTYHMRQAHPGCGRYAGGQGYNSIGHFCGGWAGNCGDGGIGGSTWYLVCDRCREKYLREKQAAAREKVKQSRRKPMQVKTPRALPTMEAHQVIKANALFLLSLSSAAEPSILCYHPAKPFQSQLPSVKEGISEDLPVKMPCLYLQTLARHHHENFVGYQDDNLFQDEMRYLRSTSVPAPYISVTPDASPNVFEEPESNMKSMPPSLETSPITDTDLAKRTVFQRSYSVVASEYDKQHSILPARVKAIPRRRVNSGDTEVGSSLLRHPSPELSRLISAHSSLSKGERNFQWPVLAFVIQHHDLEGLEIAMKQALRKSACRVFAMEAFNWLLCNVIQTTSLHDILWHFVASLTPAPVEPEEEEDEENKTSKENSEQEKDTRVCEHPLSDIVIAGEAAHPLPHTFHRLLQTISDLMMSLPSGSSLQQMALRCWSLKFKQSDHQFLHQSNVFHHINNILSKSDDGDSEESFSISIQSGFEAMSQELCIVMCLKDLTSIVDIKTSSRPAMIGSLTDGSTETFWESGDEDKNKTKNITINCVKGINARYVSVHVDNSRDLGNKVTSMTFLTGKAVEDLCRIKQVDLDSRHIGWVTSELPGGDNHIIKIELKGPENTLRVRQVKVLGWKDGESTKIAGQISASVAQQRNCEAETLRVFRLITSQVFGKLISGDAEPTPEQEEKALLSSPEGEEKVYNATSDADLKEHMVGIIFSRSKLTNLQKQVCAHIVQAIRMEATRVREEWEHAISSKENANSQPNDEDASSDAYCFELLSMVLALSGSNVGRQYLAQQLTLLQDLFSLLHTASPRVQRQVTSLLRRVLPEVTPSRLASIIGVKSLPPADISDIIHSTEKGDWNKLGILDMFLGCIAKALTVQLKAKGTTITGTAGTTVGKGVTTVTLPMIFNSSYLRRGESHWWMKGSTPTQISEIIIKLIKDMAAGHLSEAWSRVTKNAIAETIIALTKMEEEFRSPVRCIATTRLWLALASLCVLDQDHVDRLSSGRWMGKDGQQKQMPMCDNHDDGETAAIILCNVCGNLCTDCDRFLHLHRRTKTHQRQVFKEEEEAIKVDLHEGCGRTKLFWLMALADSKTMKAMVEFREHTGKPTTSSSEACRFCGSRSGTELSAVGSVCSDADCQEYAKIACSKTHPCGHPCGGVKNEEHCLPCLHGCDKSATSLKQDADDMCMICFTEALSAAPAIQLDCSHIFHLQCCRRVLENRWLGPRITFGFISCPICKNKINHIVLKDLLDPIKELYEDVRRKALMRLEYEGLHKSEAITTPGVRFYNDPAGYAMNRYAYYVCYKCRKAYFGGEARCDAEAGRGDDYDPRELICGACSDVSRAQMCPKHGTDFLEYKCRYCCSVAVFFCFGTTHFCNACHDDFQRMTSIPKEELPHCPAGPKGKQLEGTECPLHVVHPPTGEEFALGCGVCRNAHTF
UniProt P55854, residues 1-92: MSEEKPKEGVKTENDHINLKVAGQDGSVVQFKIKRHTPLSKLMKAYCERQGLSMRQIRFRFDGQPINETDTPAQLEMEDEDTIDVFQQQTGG
UniProt Q13263: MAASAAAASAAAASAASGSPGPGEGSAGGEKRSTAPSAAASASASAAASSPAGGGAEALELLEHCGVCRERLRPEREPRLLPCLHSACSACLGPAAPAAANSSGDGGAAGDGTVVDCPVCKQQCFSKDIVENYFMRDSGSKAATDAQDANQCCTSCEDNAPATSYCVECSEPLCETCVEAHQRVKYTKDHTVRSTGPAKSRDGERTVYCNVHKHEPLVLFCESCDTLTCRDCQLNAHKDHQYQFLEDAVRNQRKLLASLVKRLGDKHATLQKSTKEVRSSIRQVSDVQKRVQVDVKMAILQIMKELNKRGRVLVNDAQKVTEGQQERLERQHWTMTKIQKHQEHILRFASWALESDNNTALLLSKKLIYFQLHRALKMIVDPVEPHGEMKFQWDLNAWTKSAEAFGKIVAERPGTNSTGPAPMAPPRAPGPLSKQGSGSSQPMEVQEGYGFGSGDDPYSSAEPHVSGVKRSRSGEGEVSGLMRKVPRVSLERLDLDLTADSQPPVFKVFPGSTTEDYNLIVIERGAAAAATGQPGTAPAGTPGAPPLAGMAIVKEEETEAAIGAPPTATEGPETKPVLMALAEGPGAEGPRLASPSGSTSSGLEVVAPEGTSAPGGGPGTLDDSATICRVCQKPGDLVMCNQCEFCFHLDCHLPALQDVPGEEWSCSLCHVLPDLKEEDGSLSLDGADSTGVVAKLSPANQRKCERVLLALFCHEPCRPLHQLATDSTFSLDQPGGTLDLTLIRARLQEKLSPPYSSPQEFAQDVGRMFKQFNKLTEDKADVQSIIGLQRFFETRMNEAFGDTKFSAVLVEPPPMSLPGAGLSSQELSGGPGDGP

Assays:
[1] = target: ITGB1 (UniProt P05556); test: co-IP; lysates of GSCs (Figure 4A, D, I)
[2] = target: ITGB1 (UniProt P05556); test: co-IP; lysates of macrophages (Figure 5C)
[3] = target: T1, HDAC7 (UniProt Q8WUI4); test: co-IP; lysates of GSC20, in part transfected with the indicated plasmids or vectors (Figure 2B, K, N, Q; TRIM28 knock-down in Figure 2Q)
T1 sequence: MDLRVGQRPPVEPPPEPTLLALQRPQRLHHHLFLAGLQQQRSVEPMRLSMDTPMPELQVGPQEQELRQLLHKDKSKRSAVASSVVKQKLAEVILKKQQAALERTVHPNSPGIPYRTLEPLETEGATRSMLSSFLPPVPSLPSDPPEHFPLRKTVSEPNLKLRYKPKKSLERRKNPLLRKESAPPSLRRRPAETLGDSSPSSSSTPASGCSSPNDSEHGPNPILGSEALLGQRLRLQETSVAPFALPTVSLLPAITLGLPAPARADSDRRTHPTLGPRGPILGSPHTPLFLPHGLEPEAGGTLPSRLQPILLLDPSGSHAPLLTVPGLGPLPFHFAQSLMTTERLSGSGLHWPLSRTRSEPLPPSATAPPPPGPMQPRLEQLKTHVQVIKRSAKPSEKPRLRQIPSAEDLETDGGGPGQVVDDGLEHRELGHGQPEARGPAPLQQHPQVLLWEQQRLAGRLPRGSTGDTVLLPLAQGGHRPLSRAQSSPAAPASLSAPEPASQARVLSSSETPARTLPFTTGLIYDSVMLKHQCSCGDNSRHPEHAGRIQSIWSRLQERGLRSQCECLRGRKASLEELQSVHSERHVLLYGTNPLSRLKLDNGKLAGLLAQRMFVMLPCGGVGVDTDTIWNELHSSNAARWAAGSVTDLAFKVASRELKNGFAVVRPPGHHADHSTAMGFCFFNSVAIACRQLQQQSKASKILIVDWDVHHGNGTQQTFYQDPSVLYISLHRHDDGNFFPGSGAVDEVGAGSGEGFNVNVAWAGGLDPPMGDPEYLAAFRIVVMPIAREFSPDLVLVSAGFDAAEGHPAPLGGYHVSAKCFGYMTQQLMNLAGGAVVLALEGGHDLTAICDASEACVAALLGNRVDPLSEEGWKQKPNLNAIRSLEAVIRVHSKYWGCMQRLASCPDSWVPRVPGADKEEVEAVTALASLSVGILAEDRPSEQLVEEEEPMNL

Row | binding [1] | binding [2] | binding [3] | Substance
1 | binds | binds |  | LGALS3 (from UniProt P17931 1-250) (ligand)
2 |  |  | binds | MYCBP2 (from UniProt O75592 1-4678) (enzyme)
3 |  |  | binds | SUMO3 (from UniProt P55854 1-92)
4 |  |  | binds | TRIM28 (from UniProt Q13263 1-835) (enzyme)
